According to paper PMC6981271:
These are yes or no findings as the source states them, for the method shown. Binding seen in cells or lysates may run through a third protein. These calls come from enrichment with a bait or labelling near it, and not all partners need be listed.

Protein sequences, listed by entry. Tags and fused reporters are not part of them.
UniProt Q76LV1: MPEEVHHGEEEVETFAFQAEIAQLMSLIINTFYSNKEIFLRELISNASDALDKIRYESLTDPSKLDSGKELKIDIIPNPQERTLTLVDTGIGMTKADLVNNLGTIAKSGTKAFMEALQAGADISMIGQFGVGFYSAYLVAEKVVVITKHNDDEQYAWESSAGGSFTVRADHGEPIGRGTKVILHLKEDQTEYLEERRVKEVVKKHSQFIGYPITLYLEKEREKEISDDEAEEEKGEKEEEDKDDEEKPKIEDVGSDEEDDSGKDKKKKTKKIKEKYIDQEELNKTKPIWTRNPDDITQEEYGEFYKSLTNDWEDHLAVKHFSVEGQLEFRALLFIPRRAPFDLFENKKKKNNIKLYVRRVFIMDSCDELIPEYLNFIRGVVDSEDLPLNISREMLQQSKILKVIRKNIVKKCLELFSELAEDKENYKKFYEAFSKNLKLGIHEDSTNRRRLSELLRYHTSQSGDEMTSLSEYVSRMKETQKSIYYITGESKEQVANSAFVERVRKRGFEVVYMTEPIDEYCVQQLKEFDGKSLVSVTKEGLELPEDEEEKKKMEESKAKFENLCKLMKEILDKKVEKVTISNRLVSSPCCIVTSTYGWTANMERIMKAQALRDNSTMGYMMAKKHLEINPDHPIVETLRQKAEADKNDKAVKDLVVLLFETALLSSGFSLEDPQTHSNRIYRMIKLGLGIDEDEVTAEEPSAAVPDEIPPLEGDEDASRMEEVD
UniProt P00442: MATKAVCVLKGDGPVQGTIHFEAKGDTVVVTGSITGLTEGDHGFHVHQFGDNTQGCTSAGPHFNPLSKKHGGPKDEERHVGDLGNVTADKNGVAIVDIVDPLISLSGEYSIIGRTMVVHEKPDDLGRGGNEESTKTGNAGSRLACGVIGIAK

T1: myristoylated recombinant bGCAP2, mock-phosphorylation control (unphosphorylated Ca2+-free GCAP2) (bovine (printed only as 'bGCAP2')) (UniProt P51177)
T1 sequence (chain, myristoylated): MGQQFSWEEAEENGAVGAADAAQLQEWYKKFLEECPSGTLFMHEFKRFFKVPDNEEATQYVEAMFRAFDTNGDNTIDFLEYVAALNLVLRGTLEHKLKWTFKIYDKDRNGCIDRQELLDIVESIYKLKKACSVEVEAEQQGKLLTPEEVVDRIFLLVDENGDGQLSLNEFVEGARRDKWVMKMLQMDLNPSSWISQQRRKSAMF

B1: peroxiredoxin-6 (enzyme, UniProt O77834 1-224)
chain: MPGGLLLGDEAPNFEANTTIGRIRFHDYLGDSWGILFSHPRDFTPVCTTELGRAAKLAPEFAKRNVKMIALSIDSVEDHLAWSKDINAYNGEEPTEKLPFPIIDDKNRDLAIQLGMLDPAEKDEKGMPVTARVVFIFGPDKKLKLSILYPATTGRNFDEILRVIISLQLTAEKRVATPVDWKNGDSVMVLPTIPEEEAKKLFPKGVFTKELPSGKKYLRYTPQP
B2: HspB8 (protein, UniProt Q5EAC9 1-196)
chain: MADGQMPFPCHYTSRRRRDPFRDSPLSSRLLDDGFGMDPFPDDLTASWPDWALPRLSSAWPGTLRSGMVPRGPTAMTRFGVPAEGRSPPPFPGEPWKVCVNVHSFKPEELMVKTKDGYVEVSGKHEEKQQEGGIVSKNFTKKIQLPAEVDPVTVFASLSPEGLLIIEAPQVPPYSPFGESSFNNELPQDGQEVTCT

What follows are molecules tested against T1, myristoylated recombinant bGCAP2, mock-phosphorylation control (unphosphorylated Ca2+-free GCAP2) (bovine (printed only as 'bGCAP2')) (assay: affinity purification with mass spectrometry; GCAP2 or GCAP2-P covalently linked to Epoxi-magnetic beads, incubated 1 h at room temperature with bovine retinal homogenate in 10 mM HEPES, 135 mM NaCl, 5 mM KCl, 1% Triton X-100, 4 mM EGTA, 2 mM EDTA, pH 7.4; eluted with 0.2 M glycine pH 2.5; LC-MS/MS, label-free (NSAF) comparison of GCAP2-P with GCAP2, three replicates; only the target purified).

binding | Molecule
binds | HSP90α (from UniProt Q76LV2 1-733)
binds | HSP90β (from UniProt Q76LV1 1-724)
binds | superoxide dismutase 1 (from UniProt P00442 1-152) (enzyme)
binds | B1
binds | B2
